The values below come from PMC6395372.

The chains behind the UniProt entries cited, without tags or fusion partners. Where a name states a change or a piece, a line headed by the entry shows the natural chain unless it says otherwise. A line that says so, or that is headed by a name, gives the form on record, which may keep a tag or linker.
MyoVa-GTD-S1651E/S1652E (globular tail domain of myosin Va, phosphomimetic) (Q9Y4I1, form named): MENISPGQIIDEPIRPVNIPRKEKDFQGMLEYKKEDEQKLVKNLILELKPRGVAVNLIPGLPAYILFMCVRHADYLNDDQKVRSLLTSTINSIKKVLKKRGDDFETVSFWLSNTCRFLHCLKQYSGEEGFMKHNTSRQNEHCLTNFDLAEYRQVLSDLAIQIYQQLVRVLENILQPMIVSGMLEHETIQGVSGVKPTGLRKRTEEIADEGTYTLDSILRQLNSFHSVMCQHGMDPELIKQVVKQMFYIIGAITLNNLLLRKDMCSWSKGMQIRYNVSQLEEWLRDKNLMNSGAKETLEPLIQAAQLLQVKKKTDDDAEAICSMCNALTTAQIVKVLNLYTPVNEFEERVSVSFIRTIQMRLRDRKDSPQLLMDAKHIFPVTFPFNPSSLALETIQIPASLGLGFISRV

B1: TC2N 277-490, holds the second C2 domain of tandem C2 domains nuclear protein (two-hybrid prey, clone 142) (domain or fragment, UniProt Q8N9U0-1 277-490)
chain: KSSAKEGSNAIEFMETFVFAIKLQNLQTVRLVFKIQTQTPRKKTIGECSMSLRTLSTQEMDYSLDITPPSKISVCHAELELGTCFQAVNSRIQLQILEARYLPSSSTPLTLSFFVKVGMFSSGELIYKKKTRLLKASNGRVKWGETMIFPLIQSEKEIVFLIKLYSRSSVRRKHFVGQIWISEDSNNIEAVNQWKETVINPEKVVIRWHKLNPS
B2: CSDE1 692-798, holds the SUZ-C domain of cold shock domain-containing protein E1 (two-hybrid prey, clone 186) (domain or fragment, UniProt O75534-1 692-798)
chain: VGDSKKLFFHVKEVQDGIELQAGDEVEFSVILNQRTGKCSACNVWRVCEGPKAVAAPRPDRLVNRLKNITLDDASAPRLMVLRQPRGPDNSMGFGAERKIRQAGVID
B3: SMS 90-366, catalytic domain of spermine synthase (two-hybrid prey, clone 123) (domain or fragment, UniProt P52788 90-366)
chain: LNKVEERMKELSQDSTGRVKRLPPIVRGGAIDRYWPTADGRLVEYDIDEVVYDEDSPYQNIKILHSKQFGNILILSGDVNLAESDLAYTRAIMGSGKEDYTGKDVLILGGGDGGILCEIVKLKPKMVTMVEIDQMVIDGCKKYMRKTCGDVLDNLKGDCYQVLIEDCIPVLKRYAKEGREFDYVINDLTAVPISTSPEEDSTWEFLRLILDLSMKVLKQDGKYFTQGNCVNLTEALSLYEEQLGRLYCPVEFSKEIVCVPSYLELWVFYTVWKKAKP

No constants are given. Whether binding was seen depends on the method and setting. Some binding calls cover weakened binding; strength is not graded here.

The first experiment has as its target MyoVa-GTD-S1651E/S1652E (globular tail domain of myosin Va, phosphomimetic) (human) (UniProt Q9Y4I1). As to the kind of experiment: two-hybrid; Matchmaker Gold screen; bait pGBKT7-EE in S. cerevisiae Y2H Gold against a universal human-normalized cDNA library (pGADT7 preys); clones positive for HIS3, ADE2, AUR1-C and MEL1.
For B1, the binding result was “binds”.

On to B2, for which the binding entry is given as “binds”.

For B3, the binding result is “binds”.

For a further experiment the target is unchanged. As to the kind of experiment: two-hybrid; pairwise validation; Y2H Gold cells co-transformed with pGBKT7 and pGADT7 vectors, 30°C, 4 days on QDO/X/A agar (four reporter genes); empty pGBKT7 as negative control.
Turning to B1, the binding result is “binds”.

Regarding B2, the binding result is recorded as “binds”.

Take B3: the binding result is “binds”.
